These are yes or no findings as the source states them, for the method shown. Binding seen in cells or lysates may run through a third protein. Some binding calls cover weakened binding; strength is not graded here.

Amino acid sequences for entries named in this document (tags omitted).
UniProt O88427: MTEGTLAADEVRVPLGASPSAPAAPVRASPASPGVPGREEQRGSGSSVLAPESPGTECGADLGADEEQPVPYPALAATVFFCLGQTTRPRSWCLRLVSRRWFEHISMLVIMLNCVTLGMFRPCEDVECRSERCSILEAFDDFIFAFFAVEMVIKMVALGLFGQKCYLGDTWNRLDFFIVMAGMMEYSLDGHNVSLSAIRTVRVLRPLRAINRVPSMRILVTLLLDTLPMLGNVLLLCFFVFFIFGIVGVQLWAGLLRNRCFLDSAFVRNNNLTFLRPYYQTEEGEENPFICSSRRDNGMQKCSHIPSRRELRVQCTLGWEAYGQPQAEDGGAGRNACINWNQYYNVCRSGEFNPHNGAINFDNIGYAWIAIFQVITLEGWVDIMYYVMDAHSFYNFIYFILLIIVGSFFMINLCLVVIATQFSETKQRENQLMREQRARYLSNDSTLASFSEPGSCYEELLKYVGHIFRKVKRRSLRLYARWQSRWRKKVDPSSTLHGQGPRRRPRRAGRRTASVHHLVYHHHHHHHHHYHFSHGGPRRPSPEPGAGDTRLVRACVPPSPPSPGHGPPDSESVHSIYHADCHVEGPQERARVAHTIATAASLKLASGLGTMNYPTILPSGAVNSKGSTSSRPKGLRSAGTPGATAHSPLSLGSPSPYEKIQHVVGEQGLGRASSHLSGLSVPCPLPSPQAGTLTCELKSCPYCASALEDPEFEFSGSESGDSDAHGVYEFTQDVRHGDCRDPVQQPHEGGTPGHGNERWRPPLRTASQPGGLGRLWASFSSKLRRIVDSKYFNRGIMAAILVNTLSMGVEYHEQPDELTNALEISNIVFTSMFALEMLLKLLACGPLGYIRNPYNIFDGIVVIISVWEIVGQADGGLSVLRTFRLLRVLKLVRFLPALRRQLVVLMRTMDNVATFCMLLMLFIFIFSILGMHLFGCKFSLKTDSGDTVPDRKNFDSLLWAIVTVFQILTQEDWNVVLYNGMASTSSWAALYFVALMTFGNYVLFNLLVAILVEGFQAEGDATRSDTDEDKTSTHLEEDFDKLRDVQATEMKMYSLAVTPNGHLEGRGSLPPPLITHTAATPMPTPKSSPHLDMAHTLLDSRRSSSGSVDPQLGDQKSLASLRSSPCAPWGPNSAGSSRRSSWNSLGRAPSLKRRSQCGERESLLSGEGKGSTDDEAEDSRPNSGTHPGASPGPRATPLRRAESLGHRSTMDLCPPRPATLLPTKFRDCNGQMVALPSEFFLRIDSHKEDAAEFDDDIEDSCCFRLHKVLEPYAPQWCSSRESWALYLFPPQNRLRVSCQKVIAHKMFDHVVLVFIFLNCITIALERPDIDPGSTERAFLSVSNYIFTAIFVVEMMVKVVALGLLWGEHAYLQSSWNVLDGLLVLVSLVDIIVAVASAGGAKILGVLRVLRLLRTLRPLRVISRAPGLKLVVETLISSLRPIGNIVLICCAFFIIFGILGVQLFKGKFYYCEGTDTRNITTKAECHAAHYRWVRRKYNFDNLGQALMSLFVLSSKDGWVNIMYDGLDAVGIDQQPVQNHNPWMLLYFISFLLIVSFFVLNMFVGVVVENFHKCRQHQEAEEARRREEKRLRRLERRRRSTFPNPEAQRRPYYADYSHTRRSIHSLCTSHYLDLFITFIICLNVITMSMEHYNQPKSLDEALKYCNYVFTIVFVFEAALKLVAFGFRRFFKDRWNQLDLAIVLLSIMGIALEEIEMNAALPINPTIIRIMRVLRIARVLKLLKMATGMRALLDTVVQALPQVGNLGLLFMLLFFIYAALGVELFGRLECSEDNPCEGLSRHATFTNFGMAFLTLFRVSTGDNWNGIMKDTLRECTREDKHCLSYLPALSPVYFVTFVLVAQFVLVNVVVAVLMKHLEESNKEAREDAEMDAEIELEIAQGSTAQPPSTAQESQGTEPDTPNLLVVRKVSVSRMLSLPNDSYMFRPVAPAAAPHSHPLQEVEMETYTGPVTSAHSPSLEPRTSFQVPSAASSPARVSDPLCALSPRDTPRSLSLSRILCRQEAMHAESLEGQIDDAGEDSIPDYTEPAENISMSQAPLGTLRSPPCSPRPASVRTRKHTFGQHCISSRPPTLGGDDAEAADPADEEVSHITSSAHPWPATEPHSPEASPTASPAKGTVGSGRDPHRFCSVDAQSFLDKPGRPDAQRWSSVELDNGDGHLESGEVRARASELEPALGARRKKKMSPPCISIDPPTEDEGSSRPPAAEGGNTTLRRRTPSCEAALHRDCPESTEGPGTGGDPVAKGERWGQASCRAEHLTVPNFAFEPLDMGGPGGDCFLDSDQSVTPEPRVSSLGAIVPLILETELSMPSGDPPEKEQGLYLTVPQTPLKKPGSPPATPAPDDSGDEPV

Data on two molecules can be found in publication PMC6960199.

Assay [1] concerns the target T1, Kelch-like 1 (KLHL1) (mouse (endogenous in DRG)) (UniProt Q9JI74).
T1 sequence: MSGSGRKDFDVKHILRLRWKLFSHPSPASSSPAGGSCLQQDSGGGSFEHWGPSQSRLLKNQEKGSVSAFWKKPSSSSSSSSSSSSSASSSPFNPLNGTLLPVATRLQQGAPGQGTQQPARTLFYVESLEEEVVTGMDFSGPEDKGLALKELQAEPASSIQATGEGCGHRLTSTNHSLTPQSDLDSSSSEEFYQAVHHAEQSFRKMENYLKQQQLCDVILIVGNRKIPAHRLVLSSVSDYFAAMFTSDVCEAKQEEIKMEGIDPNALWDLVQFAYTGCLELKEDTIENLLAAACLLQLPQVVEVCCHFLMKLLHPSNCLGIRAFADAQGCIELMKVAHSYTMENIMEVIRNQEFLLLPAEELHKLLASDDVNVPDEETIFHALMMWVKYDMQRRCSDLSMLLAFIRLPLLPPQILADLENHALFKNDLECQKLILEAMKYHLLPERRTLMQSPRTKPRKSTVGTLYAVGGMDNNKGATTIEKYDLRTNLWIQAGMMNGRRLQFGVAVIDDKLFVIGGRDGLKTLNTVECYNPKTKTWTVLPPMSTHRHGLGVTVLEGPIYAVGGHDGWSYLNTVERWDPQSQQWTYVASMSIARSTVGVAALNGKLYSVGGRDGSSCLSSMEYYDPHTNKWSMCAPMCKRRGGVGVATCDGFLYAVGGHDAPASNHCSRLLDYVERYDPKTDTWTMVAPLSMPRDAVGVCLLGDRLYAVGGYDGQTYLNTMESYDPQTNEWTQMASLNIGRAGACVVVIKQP
Description: co-IP; crude membrane preparations of mouse DRG; primary antibodies against CaV3.2 (1:40) or KLHL1 (1:40), or IgG as negative control, 1-3 h at 4°C, then protein A/G agarose beads overnight at 4°C; western blot.

Assay [2] concerns the target CaV3.2 T-type calcium channel (mouse (endogenous in DRG)) (UniProt O88427). The description is as above.

Consider “CaV3.2 T-type calcium channel (from UniProt O88427 1-2365)”, for which the binding entry in assay [1] is on record as “binds”.

B1: Kelch-like 1 (KLHL1) (protein, UniProt Q9JI74 1-751)
chain: T1 sequence
In the case of B1, the binding result in assay [2] was “binds”.
